Measurements: PubChem BioAssay AID1347423 (Functional Genomics Laboratory (NCATS/FGL), 2020)
Among all 52,000 sequences or so, about 210 (0.4%) were called active.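 How the source made its calls: active means gene whose silencing raises cell survival under the drug, median off-target-corrected z-score across its silencing RNAs 2 or more; inactive means the rest.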 Some of the results follow.

Experiment: Resistance to Poly (ADP-Ribose) Polymerase inhibitor: Gene Identification via Genome-wide siRNA Screen
Conditions: mouse BRCA2 R2336H ES cells, olaparib, CellTiter-Glo viability; hits give high values
Summary of the method: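 Mouse BRCA2 R2336H ES cells were reverse-transfected with siRNA (20 nM final), treated at 48 h with 500 nM olaparib, and read by CellTiter-Glo after 72 h. Scores: MAD-based z per siRNA, median per gene, seed off-target correction.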

Sequence	z-score
GGCUCAAGCUAUGAAGAGATT against Gstm4	inactive: -1.09
GGAUAAUACAGAACAAAAGTT against 5730458D16Rik	inactive: 0.382
GGAUGAAAUUGGAAAGGGCTT against Camkk2	inactive: 1.9
GGGUGAAAUCACCUCUCAGTT against Scn2b	inactive: 1.78
GGUCACCACACGAUCUACATT against Slc4a4	inactive: 0.158
CCAAUAGUGCUGAUAAUGUTT against BC021790	inactive: -0.455
GCCUGUGGAAACUUUCCUGTT against 2310003H01Rik	inactive: 0.362
GGGAGUGCGGAUUUCUUGUTT against Col9a2	inactive: -0.358
GCGAGGGAUAAUUUAUAGATT against Prkci	inactive: 0.204
GCAUUUAUAUGAGAUGCAGTT against 4933403F05Rik	inactive: 0.19
CCAACAAUCCGUAUCGACCTT against 4930425N13Rik	inactive: -0.139
GAGCAAUAAGCUAGGGUGATT against Olfr1428	inactive: -0.146
GCAUCAUCAGCUGGUUCGUTT against Agpat2	inactive: 0.718
GGCAUUGCAUUUGAGGAUCTT against Slc35f5	inactive: 0.802
GCUUCGUGAGCAAAUCCUATT against 6330407D12Rik	inactive: 0.656
GGAUUUAAAUCACCUGUAATT against Tdpoz1	inactive: 0.277
GGAUGCAGAAACGCACGGUTT against Ltb4r1	inactive: 0.72
GAUCACAGUCACGAUAUAATT against Prss19	inactive: -1.28
GGUGCUAGACAGAGCUUACTT against Gdf10	inactive: 2.39
GCAUCAGAGAUAUUAUUUGTT against Ube2a	inactive: 0.862
CCACAAUCAUUAACAAGCUTT against Arl6	inactive: 0.364
CCAUGGACCAAGAUCCAGATT against AA408556	inactive: -1.41
GGAGGAGUUAAAUAUGAUCTT against Cnnm4	inactive: -0.351
GGACUUUUUCUAGAAACGATT against Fbxo16	inactive: -0.987
GGAACAUGAAAACACGAAUTT against 4933425I22Rik	inactive: 0.352
GGAUCAUGAACUCUUAGAATT against 4930429M06Rik	inactive: 0.0128

Sequence	z-score
GGAAUUUGUCAUUCAGGAATT against Rad1	inactive: 0.984
GGCCAAUGCACUGUGUUACTT against Tinag	inactive: -0.819
CCUCCACUAUACGGUAAGUTT against Pla2g2c	inactive: -1.62
GGCACAAGGAACCUACGUUTT against Perp	inactive: 0.752
GCCUUGUUGUGUUGGCUUATT against Olfr1111	inactive: -0.77
GGUUAGCCAGCUGAAUCAATT against Cxxc4	inactive: -1.18
UCACAGAAGGCUGUAUCCUTT against Olfr244	inactive: -1.52
CCAUCUUACGAUUGCCUUCTT against Olfr362	inactive: -1.65
GGAAUGUUCCUUCGAGCAGTT against 1810010N17Rik	inactive: 2.05
GCUGAUCAAACAGAUUAUCTT against Fbxl3a	inactive: 1.29
GGAAGCUGAGAUUUAUUUUTT against Trpc4	inactive: 0.919
GGACUGCUACAAAGAACAATT against C2b	inactive: -0.596
GGAAAAGUUCCAUCUAGUATT against Pole	inactive: -1.1
CCCUUUCCUAUUUGUUAUGTT against Serpinb3d	inactive: 0.361
GGCACCAAGUUUGACACGCTT against Zap70	inactive: 0.842
GGAGAACAUCGUUUCCAGCTT against Nlgn1	inactive: 0.637
CGAUGUUACUAUAGGAUCUTT against A730036I17Rik	inactive: 0.408
GGAAAUGUACAAGACUGAUTT against Anxa2	inactive: -0.106
GGAGUUCUUCUUCAAUGAGTT against Kcnd3	inactive: 0.841
CCCACAAAACAUGACCGCCTT against Sirt6	inactive: 0.846
CCUCGACUCAUUCAGCUUGTT against Ogg1	inactive: -0.0753
CCUUAAAACUUUCUGGUUGTT against 6330407G11Rik	inactive: 0.0707
GGCUAUCCCUGUUGUGUCUTT against Kit	inactive: 0.065
GGAUAACAUGAUCUCUACUTT against 1200014P03Rik	inactive: 0.71
GCAAUCUGUUUAGAGAGAGTT against Gm405	inactive: 0.119
GGAGCUGACAGACAUAGACTT against Ctnnbl1	inactive: -0.457

Sequence	z-score
GCAUAUACCACCAAUGAGATT against 4933439F18Rik	inactive: -0.199
UAAGGCCAUCUAGUGGAGATT against 1700013L23Rik	inactive: 0.986
GCAGGAUUGCAUAUAUCGGTT against Cspg5	inactive: 0.536
GGCGUGAAUGAAUUUGGAATT against Adam22	inactive: -0.00882
GGUUUCUUGGACAGAAGUGTT against E330028A19Rik	inactive: -0.82
GGAAGAAUAUGCCAGAAUGTT against Stra8	inactive: -0.179
GCCCGUCGGAAAGAAGAAATT against 2310002B06Rik	inactive: -1.12
GCCUCUGUAUGUCAUAUUGTT against LOC545471	inactive: 0.213
GGUUUUAAGCUUGCUUAUGTT against 1110017I16Rik	inactive: -0.351
GGCAAAAUUAUGAAUGGCCTT against Rfk	inactive: 0.826
GGCAAACCUGAAGAAGUUCTT against Shank3	inactive: -0.217
GGAGAAGCUGGCAAAUAUGTT against Mbl1	inactive: 0.891
GCUUAUUCCCAUAAAUAGATT against 4933425K02Rik	inactive: 1.81
GGAGAUAGACAUGCCUUUCTT against 1700024C24Rik	inactive: -0.00276
GGUUUUCUUAGAUACUUUGTT against Fzd6	inactive: -0.174
CGAUCACCAUGAUGAAUUCTT against Ngfrap1	inactive: 1.13
GGGUGUUUGCUCAGAGAUGTT against Tmem7	inactive: 0.923
GCGUAGCUGUAGUGAACCATT against Erh	inactive: -1.83
GGAUUAUCAUGGUUUGAUCTT against Elp4	inactive: 0.0219
GGAUUUCCUUUUUAAAUCCTT against Zfp42	inactive: 0.0338
GGCCAAAAUGUUUGUUUGGTT against E030011O05Rik	inactive: -0.59
CCGUCUACAUAAAUUGCCCTT against Lrfn1	inactive: 0.653
GCCAAUAGGUGAUUUUCUCTT against Vil1	inactive: 1.11
CGUAUGGAGUCCAUUACUATT against Frmd4b	inactive: 0.141
CCUAAGCUUAUCUCAUAUUTT against 4930449I24Rik	inactive: -1.1
GGUGCGAGAUGCAUACAUCTT against Cct6b	inactive: -1.5

Single values from above:
z-score, CGAUCACCAUGAUGAAUUCTT against Ngfrap1 reads inactive: 1.13
z-score, GCCCGUCGGAAAGAAGAAATT against 2310002B06Rik reads inactive: -1.12
z-score, GGCAAACCUGAAGAAGUUCTT against Shank3 reads inactive: -0.217
z-score, GCCUCUGUAUGUCAUAUUGTT against LOC545471 reads inactive: 0.213

Remaining list, next part

Sequence	z-score
GGAAAAGACAGUCUCUGAATT against D4Bwg1540e	inactive: 0.89
GAGGCCUUCCUUUUCUAUATT against Foxd2	inactive: -0.841
CCAUAUCCGUAGGUAUAUCTT against Htr2a	inactive: 1.02
CGGUCUGUUCAUAUCUUACTT against BC027373	inactive: 0.464
GUGGAAAUGUACUUCUCUGTT against Olfr257	inactive: -2.36
CCAGUUUGCACAAGUUUUCTT against Fyco1	inactive: 0.605
GCUACAUGAUGUUUGGCAATT against Crsp9	inactive: -0.33
GGAUCCCUUGAAAUACCAATT against Lrpap1	inactive: -0.432
CCUAUAGUCUCUGUCAUUUTT against Siat7e	inactive: 0.164
GGAACGACAAUAAAGCUUATT against Ninj1	inactive: 1.05
GGUUCCAGAGAAACAAAAGTT against Cox7a2	inactive: 0.629
GGAAGGCAUUGAAGCUGAATT against 1700052N19Rik	inactive: 0.98
CCUGAUGCAACACAGGUCCTT against A630026F21Rik	inactive: 0.669
GGAAAACAUGUCACAUAAATT against Cd47	inactive: -1.89
GGAGAGAUUAGCUCACAUGTT against Slc9a6	inactive: -0.0667
GGAAAUCCUUUAUAUGUUGTT against Cyp2c70	inactive: 0.247
CCCGAAGUACCAAAAAGUUTT against Usp21	inactive: -0.411
GGACAAGCUGGAAUUAAACTT against LOC230872	inactive: 0.189
GGAGUUGUUGUGCUUUUAATT against C630002M10Rik	inactive: -0.722
CCAUGAUUCUUCGCACUGUTT against Olfr67	inactive: 1.91
GGAGGAGACCUUGAUUGAUTT against Cyp46a1	inactive: 1.18
GGAUUAUGCAUAACCAUGATT against Pik3r1	inactive: 0.76
GGACAUGCUAUAAUGUAUUTT against 9130423L19Rik	inactive: -0.232
CCGUAAACAACCUUAAGUUTT against Hagh	inactive: -0.0815
GGCUGUGUAUUACUGUGCCTT against Vpreb1	inactive: 0.264
